Here are results for 54 sequences from article PMC7819943, “Rice protein-binding microarrays: a tool to detect cis-acting elements near promoter regions in rice”.

The chains behind the UniProt entries cited, without tags or fusion partners.
UniProt Q0JBA9, entry or part of it: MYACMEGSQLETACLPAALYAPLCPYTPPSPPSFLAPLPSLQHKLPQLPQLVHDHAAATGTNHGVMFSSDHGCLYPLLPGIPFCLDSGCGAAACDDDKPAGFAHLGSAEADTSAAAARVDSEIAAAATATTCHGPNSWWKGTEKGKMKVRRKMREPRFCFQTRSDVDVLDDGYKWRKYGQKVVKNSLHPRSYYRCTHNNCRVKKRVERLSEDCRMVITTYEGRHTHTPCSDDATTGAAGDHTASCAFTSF

This is one part of the list.

This assay deals with OsWRKY34 (Oryza sativa, UniProt Q0JBA9 1-250). Put plainly: protein-binding microarray (RPBM); PBS, 2% BSA, 51.3 ng/ul salmon testes DNA, 50 uM zinc acetate, 200 nM TF, 25 C, 1 h; high values mean tight binding. The note with it: protein: recombinant; tags: N-terminal polyhistidine and DsRed monomer fusion (pET32a); label: CyDye5-dUTP incorporated in the synthesized complementary strand; 3' TTTTT single-stranded linker to array surface; dsDNA, one strand shown. In short, it runs like this:
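In PBS with 2% BSA, salmon testes DNA and 50 µM zinc acetate, 200 nM protein was incubated on a custom Agilent array at 25 °C for 1 h and then washed off. The array had been made double-stranded by primer extension with Cy5-dUTP and blocked with 2% BSA. The proteins were transcription factors fused N-terminally to polyhistidine and DsRed, expressed in E. coli BL21-CodonPlus and purified on Ni–NTA. The binding signal is per-feature fluorescence intensity (arbitrary units) from an Axon 4000B scanner.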
In the case of “CCATCCACCTCTCTCGATCGTCTCATGAGCTAGCGCGCCCCGGAGTCACCTAGTGCAG”, the binding signal was 8660 fluorescence intensity (a.u.).

For “GGTGGTGTTCATGAGCGATGACTCTGCCTGCCATTCACATCGGAGTCACCTAGTGCAG”, the binding signal was 8550 fluorescence intensity (a.u.).

For the sequence “AATGCCACATGGACGTGACGTGTCCTTTACTTTTTTTTTCCGGAGTCACCTAGTGCAG”, the binding signal is 11300 fluorescence intensity (a.u.).

Regarding “CCCTTTTGTTTTTTGATGCAAATTCCCCTCCTTTTCTTTTCGGAGTCACCTAGTGCAG”, the binding signal is 9740 fluorescence intensity (a.u.).

Regarding “GTTTGACTTTTACACGTCCATATTAGAACTATAGAGTTATCGGAGTCACCTAGTGCAG”, the binding signal is 8480 fluorescence intensity (a.u.).

For the sequence “CTCTACTATATATTCTGGCGCGAACCCGACTCCCTCCACACGGAGTCACCTAGTGCAG”, the binding signal was 8320 fluorescence intensity (a.u.).

Take “GTATCCTCCTTAAACTCGGTCTATTCTGGATAAACTTCCTCGGAGTCACCTAGTGCAG”: the binding signal was 9110 fluorescence intensity (a.u.).

On to “TTCAACGCCGCTCTCACTCTCACTATATTTATGAGCATTTCGGAGTCACCTAGTGCAG”, for which the binding signal is 10700 fluorescence intensity (a.u.).

Turning to “CGTCATCTTCCGTCTTAGCCTCACCGCTCCGTTCCGTTCCCGGAGTCACCTAGTGCAG”, the binding signal was 10600 fluorescence intensity (a.u.).

Regarding “GGAATTGGCCATAAGATTATTTTTCTCTGTATCTTTTTTCCGGAGTCACCTAGTGCAG”, the binding signal was 10100 fluorescence intensity (a.u.).

For “CGCTCTCTGACATGTGGGGCCGGGTGGTTTGCATCAGAGGCGGAGTCACCTAGTGCAG”, the binding signal was 8740 fluorescence intensity (a.u.).

As for “GGTGGGCTTGCAAATCATAGTACTGAAGTGTAGAATTTTTCGGAGTCACCTAGTGCAG”, the binding signal was 8180 fluorescence intensity (a.u.).

With “CACCGCCATCTCTCGCTCTCTCTCTCTCTCTCTCTCTCTCCGGAGTCACCTAGTGCAG”, the binding signal is 10100 fluorescence intensity (a.u.).

Take “TCTCCACCAGTGATGGCTGTGTCGGCCTCCTCGACCTACTCGGAGTCACCTAGTGCAG”: the binding signal is 8740 fluorescence intensity (a.u.).

For “TCCTTGATATTTTTTCTGCCAGGTGTGGGGCCCGGGCCCACGGAGTCACCTAGTGCAG”, the binding signal is 8190 fluorescence intensity (a.u.).

Consider “CTCGATTGCCGATTAATTAGTTGACCTCTTCGCTTATCCTCGGAGTCACCTAGTGCAG”, for which the binding signal is 8340 fluorescence intensity (a.u.).

“TCTAGGTTCTGTTCTATTCGGTTCTAGGTTATCATATTTTCGGAGTCACCTAGTGCAG”: the binding signal was 12100 fluorescence intensity (a.u.).

As to “ATTGCGACCATTATTATTCATTATTTTTCCGCGAGTCCAACGGAGTCACCTAGTGCAG”, the binding signal is 9440 fluorescence intensity (a.u.).

With “GAATTCCCCGATCCTCGGTTAATCTCGCCGTGTTGCCGTCCGGAGTCACCTAGTGCAG”, the binding signal was 11200 fluorescence intensity (a.u.).

Consider “GGATTTCTACACTAATCGCTTCCAATTCCATCGCTTTTCTCGGAGTCACCTAGTGCAG”, for which the binding signal was 12000 fluorescence intensity (a.u.).

Take “CATGGGTCATTTTGCTCTCTCCTATAACACATTACAAGTTCGGAGTCACCTAGTGCAG”: the binding signal is 9830 fluorescence intensity (a.u.).

For the sequence “CTCCGTTCATGTTTCTATCTCTCTGCTACCTCTTCTTTCACGGAGTCACCTAGTGCAG”, the binding signal is 14300 fluorescence intensity (a.u.).

For the sequence “ATTGGCTGGGGTGGGGCATTTCTAGGGGCCCCGGGCGCCTCGGAGTCACCTAGTGCAG”, the binding signal is 14500 fluorescence intensity (a.u.).

On to “CATCCCCATCACTTTGATCACTTGTGTTGATCCTAATCTACGGAGTCACCTAGTGCAG”, for which the binding signal is 8560 fluorescence intensity (a.u.).

As for “GACCGCTTCACCCGCCCAATCAAAACCGTCCATCCATCCCCGGAGTCACCTAGTGCAG”, the binding signal is 10300 fluorescence intensity (a.u.).

For “CCAAAGTCTTATTCCTTCCGGTTTCTATCCTCTTGTTGGGCGGAGTCACCTAGTGCAG”, the binding signal was 9640 fluorescence intensity (a.u.).

Regarding “GGGTGGATTTTCTCTCCTGTCCCCGCACCTGGCCAAGACTCGGAGTCACCTAGTGCAG”, the binding signal is 10100 fluorescence intensity (a.u.).

Turning to “AACTTTTGGACTCATAATCATACTAAACATATATATGCTACGGAGTCACCTAGTGCAG”, the binding signal is 8190 fluorescence intensity (a.u.).

For the sequence “GTAATTTAACCTGCTCTTATCTTTTTCAAGTTTGTTCATACGGAGTCACCTAGTGCAG”, the binding signal is 11500 fluorescence intensity (a.u.).

“CGAGGGGATGGGCGGGGTTGATCGGCGCCGCGAAGGATGCCGGAGTCACCTAGTGCAG”: the binding signal is 9320 fluorescence intensity (a.u.).

For the sequence “AAAACACACCCTTACTCCTAGCAACACCTTGACTTCTCGCCGGAGTCACCTAGTGCAG”, the binding signal is 9300 fluorescence intensity (a.u.).

Regarding “GCCCATCGCCTGACGCCGCACTTCGCCTCTGCGCCTGACTCGGAGTCACCTAGTGCAG”, the binding signal was 13400 fluorescence intensity (a.u.).

Turning to “TTACCGTGGTTATTGTTCTCTTACCATTTATTCTTGCCATCGGAGTCACCTAGTGCAG”, the binding signal is 10000 fluorescence intensity (a.u.).

Turning to “TCTGTACTGTACTGTACTCCTACCCTTTTTCTGGTCATTTCGGAGTCACCTAGTGCAG”, the binding signal was 9200 fluorescence intensity (a.u.).

Consider “GAGTGTCTATGTACTTTACTTTTTTATTTTTTTTCTTCTACGGAGTCACCTAGTGCAG”, for which the binding signal was 8620 fluorescence intensity (a.u.).

As to “CATACCCTCAGCCACCATTCCACGTCTAACTATATAATATCGGAGTCACCTAGTGCAG”, the binding signal is 8710 fluorescence intensity (a.u.).

On to “GGGAGGGGCTGCTAATTCGGTGTGATTAGTACAGTAGTTTCGGAGTCACCTAGTGCAG”, for which the binding signal is 10100 fluorescence intensity (a.u.).

Consider “GGGCCCGACGTATATATTTTTGTTTCAAATGCCACATAAGCGGAGTCACCTAGTGCAG”, for which the binding signal is 8030 fluorescence intensity (a.u.).

As to “GATGTTCCCTCGTTATTTGTATGTCACTTAAATGGTTATACGGAGTCACCTAGTGCAG”, the binding signal is 8490 fluorescence intensity (a.u.).

With “TTTACAGCAAACTTTCTCCAAACTCCTAACTTTCCATCACCGGAGTCACCTAGTGCAG”, the binding signal was 8190 fluorescence intensity (a.u.).

Consider “GATTTTTTTTCCTGTACTGTTTAACCACTCGTATTATTTACGGAGTCACCTAGTGCAG”, for which the binding signal is 9420 fluorescence intensity (a.u.).

Regarding “TTTGTACTTCCGATGCTACAATTTATGGTCCATGCCTCTCCGGAGTCACCTAGTGCAG”, the binding signal was 10300 fluorescence intensity (a.u.).

In the case of “GCAGTATCCTTGTGGTTTTCCTACAATTTTGTCTTGGTATCGGAGTCACCTAGTGCAG”, the binding signal was 9230 fluorescence intensity (a.u.).

Turning to “TGTGCTGTTCTCTCCTTGATCCCTAGTCGTCGGATTTTGGCGGAGTCACCTAGTGCAG”, the binding signal is 11400 fluorescence intensity (a.u.).

On to “GTTCACTTCCTATACATTTTGCAACACACTTTTTGAACATCGGAGTCACCTAGTGCAG”, for which the binding signal is 9880 fluorescence intensity (a.u.).

For “CTGGTTGTCTTCTGTAGAATTCTACTACTAGTATTATCACCGGAGTCACCTAGTGCAG”, the binding signal is 8100 fluorescence intensity (a.u.).

As for “TATGCTGAAGTCGCTGCTGCTGGGGTGGGGAGTTTAAAAGCGGAGTCACCTAGTGCAG”, the binding signal is 13200 fluorescence intensity (a.u.).

Take “CGAGCTCCCACCTCCTCCGTCTCCAACTCCGGCGATATCTCGGAGTCACCTAGTGCAG”: the binding signal is 8750 fluorescence intensity (a.u.).

On to “AGCCCTTTTCGAGTTGAACTATTCCGACTTGAGTATCCACCGGAGTCACCTAGTGCAG”, for which the binding signal was 8840 fluorescence intensity (a.u.).

As to “ACCCACCATACTAGTATCCCGATGATCTCCATCATCATCGCGGAGTCACCTAGTGCAG”, the binding signal is 10000 fluorescence intensity (a.u.).

“TCTTCACCGGCAAGCCACATTTCACCTCGTCCAGCAACCTCGGAGTCACCTAGTGCAG”: the binding signal was 11000 fluorescence intensity (a.u.).

For the sequence “AAATCACCACAACCCTGAGATCCATCACCAAGATGCTAAACGGAGTCACCTAGTGCAG”, the binding signal is 8200 fluorescence intensity (a.u.).

Regarding “CCCGTCTTGCCTTGTCTCCGGGTGGTGGAGCGCCTCTTCCCGGAGTCACCTAGTGCAG”, the binding signal is 8980 fluorescence intensity (a.u.).

Regarding “ATAGGCTTCACCTTTTTTTATTTTTACCTTTATTACTTACCGGAGTCACCTAGTGCAG”, the binding signal is 9270 fluorescence intensity (a.u.).
